{
  "source": "the supplement of paper PMC4635364",
  "key": {"ReNCell VM [1]": {"system": "ReNCell VM", "test": "neuronal differentiation score (DCX+ cell fraction vs untreated, manual image score) (score (-3 to 3)); higher = more neuronal differentiation", "conditions": "2 uM, 2 weeks"}, "ReNCell VM [2]": {"system": "ReNCell VM", "test": "dopaminergic neuron differentiation score (TH+ cell fraction vs untreated, manual image score) (score (0 to 3)); higher = more TH+ dopaminergic neuron differentiation", "conditions": "2 uM, 4 weeks, BDNF 10 ng/ml + GDNF 10 ng/ml"}},
  "note": "Where a name gives a salt, the structure may show the parent alone. The list shows a part of the results. Repeats in this data set agree poorly, so a single value says little.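 Human fetal ventral-midbrain neural progenitor line ReNCell VM, differentiated without mitogens. Images stained for doublecortin (early neurons) or tyrosine hydroxylase (dopaminergic neurons) were scored by blinded raters against untreated wells (0 = no change). Repeats and both raters were averaged, and compounds averaging 2 or higher were picked as hits for retesting.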 Where a SMILES comes first, the peptide text is derived from it. [ ]: non-standard residue; d: D form. pGlu = O=C1CC[C@@H](C(=O)O)N1; Thz = O=C(O)[C@@H]1CSCN1",
  "data": [
    {"smiles": "O=C1CC[C@@H](C(=O)N2CSC[C@H]2C(=O)O)N1", "note": "([pGlu]-[Thz]-OH)", "values": [
      {"measurement": "neuronal differentiation score", "setting": "ReNCell VM [1]; library: Spectrum", "result": "inactive: 0"},
      {"measurement": "dopaminergic neuron differentiation score", "setting": "ReNCell VM [2]; library: Spectrum", "result": "inactive: 0"}
    ]},
    {"smiles": "Clc1ccc2c(c1)N=C(N1CCNCC1)c1ccccc1N2", "note": "[N-Desmethylclozapine]", "values": [
      {"measurement": "neuronal differentiation score", "setting": "ReNCell VM [1]; library: Tocriscreen", "result": "inactive: 0"},
      {"measurement": "dopaminergic neuron differentiation score", "setting": "ReNCell VM [2]; library: Tocriscreen", "result": "inactive: 0"}
    ]},
    {"smiles": "O=C(O)c1cccnc1Nc1cccc(C(F)(F)F)c1", "values": [
      {"measurement": "neuronal differentiation score", "setting": "ReNCell VM [1]; library: Spectrum", "result": "inactive: 0"},
      {"measurement": "dopaminergic neuron differentiation score", "setting": "ReNCell VM [2]; library: Spectrum", "result": "inactive: 0"}
    ]},
    {"smiles": "CN1CCN(CCCN2c3ccccc3Sc3ccc(Cl)cc32)CC1", "values": [
      {"measurement": "neuronal differentiation score", "setting": "ReNCell VM [1]; library: Spectrum", "result": "inactive: 0"},
      {"measurement": "dopaminergic neuron differentiation score", "setting": "ReNCell VM [2]; library: Spectrum", "result": "active: 3"}
    ]},
    {"smiles": "C[C@@H]1CC[C@H]2C(C)(C)[C@H]3C[C@@]12CC[C@@]3(C)O", "note": "[cedrol]", "values": [
      {"measurement": "neuronal differentiation score", "setting": "ReNCell VM [1]; library: Natural", "result": "inactive: 0"},
      {"measurement": "dopaminergic neuron differentiation score", "setting": "ReNCell VM [2]; library: Natural", "result": "inactive: 0"}
    ]},
    {"smiles": "CC1=CC2C(CC1=O)C(C)=CCC2C(C)C", "note": "(stereo unspecified)", "values": [
      {"measurement": "neuronal differentiation score", "setting": "ReNCell VM [1]; library: Spectrum", "result": "inactive: 0"},
      {"measurement": "dopaminergic neuron differentiation score", "setting": "ReNCell VM [2]; library: Spectrum", "result": "inactive: 0"}
    ]},
    {"smiles": "CN(C)[C@@H]1C(O)=C(C(=O)NCN2CCCC2)C(=O)[C@@]2(O)C(O)=C3C(=O)c4c(O)cccc4[C@@](C)(O)[C@H]3C[C@@H]12", "values": [
      {"measurement": "neuronal differentiation score", "setting": "ReNCell VM [1]; library: Spectrum", "result": "inactive: 0"},
      {"measurement": "dopaminergic neuron differentiation score", "setting": "ReNCell VM [2]; library: Spectrum", "result": "inactive: 0"}
    ]},
    {"smiles": "CN1CCN(C(c2ccccc2)c2ccccc2)CC1", "values": [
      {"measurement": "neuronal differentiation score", "setting": "ReNCell VM [1]; library: Spectrum", "result": "inactive: 0"},
      {"measurement": "dopaminergic neuron differentiation score", "setting": "ReNCell VM [2]; library: Spectrum", "result": "inactive: 0"}
    ]},
    {"smiles": "C=CC1=C(C(=O)O)N2C(=O)[C@@H](NC(=O)/C(=N\\O)c3csc(N)n3)[C@H]2SC1", "note": "[Cefdinir]", "values": [
      {"measurement": "neuronal differentiation score", "setting": "ReNCell VM [1]; library: Prestwick", "result": "inactive: 0"},
      {"measurement": "dopaminergic neuron differentiation score", "setting": "ReNCell VM [2]; library: Prestwick", "result": "inactive: 0"}
    ]},
    {"smiles": "c1coc(CNc2ncnc3[nH]cnc23)c1", "values": [
      {"measurement": "neuronal differentiation score", "setting": "ReNCell VM [1]; library: Spectrum", "result": "inactive: 0"},
      {"measurement": "dopaminergic neuron differentiation score", "setting": "ReNCell VM [2]; library: Spectrum", "result": "inactive: 0"}
    ]},
    {"smiles": "O=C(O)c1cc(-c2ccc(F)cc2F)ccc1O", "note": "[Diflunisal]", "values": [
      {"measurement": "neuronal differentiation score", "setting": "ReNCell VM [1]; library: Prestwick", "result": "inactive: 0"},
      {"measurement": "dopaminergic neuron differentiation score", "setting": "ReNCell VM [2]; library: Prestwick", "result": "inactive: 0"}
    ]},
    {"smiles": "Cc1cccc(C#Cc2ccccc2)n1", "note": "[MPEP hydrochloride]", "values": [
      {"measurement": "neuronal differentiation score", "setting": "ReNCell VM [1]; library: Tocriscreen", "result": "inactive: 0"},
      {"measurement": "dopaminergic neuron differentiation score", "setting": "ReNCell VM [2]; library: Tocriscreen", "result": "inactive: 0"}
    ]},
    {"smiles": "C=C1c2cccc(O)c2C(=O)C2=C(O)[C@]3(O)C(=O)C(C(N)=O)=C(O)[C@@H](N(C)C)[C@@H]3[C@@H](O)[C@H]12", "note": "[Methacycline hydrochloride]", "values": [
      {"measurement": "neuronal differentiation score", "setting": "ReNCell VM [1]; library: Prestwick", "result": "inactive: 0"},
      {"measurement": "dopaminergic neuron differentiation score", "setting": "ReNCell VM [2]; library: Prestwick", "result": "inactive: 0"}
    ]},
    {"smiles": "CCN1CCCC1CNC(=O)c1cc(S(N)(=O)=O)ccc1OC", "note": "(stereo unspecified)", "values": [
      {"measurement": "neuronal differentiation score", "setting": "ReNCell VM [1]; library: Spectrum", "result": "inactive: 0"},
      {"measurement": "dopaminergic neuron differentiation score", "setting": "ReNCell VM [2]; library: Spectrum", "result": "inactive: 0"}
    ]},
    {"smiles": "C=C1CC[C@@H]2[C@](C)(CO)[C@H](O)CC[C@@]2(C)[C@@H]1C/C=C1/C(=O)OC[C@H]1O", "note": "[andrographolide]", "values": [
      {"measurement": "neuronal differentiation score", "setting": "ReNCell VM [1]; library: Natural", "result": "inactive: 0"},
      {"measurement": "dopaminergic neuron differentiation score", "setting": "ReNCell VM [2]; library: Natural", "result": "inactive: 0"}
    ]},
    {"smiles": "Cn1c(=O)c2c(ncn2CC2OCCO2)n(C)c1=O", "values": [
      {"measurement": "neuronal differentiation score", "setting": "ReNCell VM [1]; library: Spectrum", "result": "inactive: 0"},
      {"measurement": "dopaminergic neuron differentiation score", "setting": "ReNCell VM [2]; library: Spectrum", "result": "inactive: 0"}
    ]},
    {"smiles": "CC1=CC(=O)CC(C)(C)C1(O)/C=C/C(C)=C\\C(=O)O", "note": "(mixture of isomers) [ABSCISIC ACID (cis,trans; +/-)]", "values": [
      {"measurement": "neuronal differentiation score", "setting": "ReNCell VM [1]; library: Spectrum", "result": "inactive: 0"},
      {"measurement": "dopaminergic neuron differentiation score", "setting": "ReNCell VM [2]; library: Spectrum", "result": "inactive: 0"}
    ]},
    {"smiles": "CC(CN(C)C)CN1c2ccccc2CCc2ccccc21", "note": "(stereo unspecified) [Trimipramine maleate salt]", "values": [
      {"measurement": "neuronal differentiation score", "setting": "ReNCell VM [1]; library: Prestwick", "result": "inactive: 0"},
      {"measurement": "dopaminergic neuron differentiation score", "setting": "ReNCell VM [2]; library: Prestwick", "result": "inactive: 0"}
    ]}
  ]
}
